# Laboratory results: PubChem BioAssay AID1224827 (NIAID, 2016)
# Assay: 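Confirm genes whose knock-down changes LPS-driven TNF promoter activity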 (follow-up of hits)
# Cell system: RAW264.7 G9 mouse macrophage reporter clone
# Knock-down reagent: single siRNA against mouse genes, 100 nM siRNA
# Duration: siRNA for 2 days, then LPS about 16 h
# Challenge: bacterial lipopolysaccharide (LPS), 10 ng/ml, cells fixed after overnight (about 16 h) stimulation
# Read-out: 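TNF promoter reporter red fluorescence in nuclei, background subtracted, normalised per plate and to non-targeting control siRNA, as z-scores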
# Reading the numbers: TNF reporter z-score, mean and TNF reporter z-score: higher = stronger Tnf promoter reporter signal; gene median z, three same-vendor siRNAs: higher = stronger Tnf reporter signal for the gene
# Call rule: 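Active siRNA: replicate-mean z-score of 2 or more, or -2 or less; no calls for control wells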
# Shown is an unselected part of about 3,800 reagents tested. About 2,200 of all reagents (57%) count as active. 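Active means a strong reporter change in either direction; calls are per siRNA, not per gene; qiagen siRNAs gave weaker effects.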 The numbers tell different reagents against one gene apart.
target gene,reagent,"TNF reporter z-score, mean","gene median z, three same-vendor siRNAs","TNF reporter z-score, repeat 1","TNF reporter z-score, repeat 2",Outcome
Atg3,1,0.118,-1.04,0.619,-0.384,inactive
Atg3,2,-1.04,-1.04,-1.43,-0.646,inactive
Atg3,3,-2.69,-1.04,-1.92,-3.45,active
Atg3,4,3.15,0.743,5,1.29,active
Atg3,5,1.64,0.743,3.08,0.196,inactive
Atg3,6,-2.03,0.743,-1.91,-2.15,active
Cdc5l,1,-1.25,-3.46,-1.22,-1.28,inactive
Cdc5l,2,-3.46,-3.46,-2.22,-4.7,active
Cdc5l,3,-5.65,-3.46,-5.56,-5.74,active
Cdc5l,4,2.21,-0.0513,3.67,0.749,active
Cdc5l,5,-0.0513,-0.0513,0.62,-0.723,inactive
Cdc5l,6,-2.53,-0.0513,-2.8,-2.27,active
Actr3,1,-1.54,-3.65,-2.37,-0.697,inactive
Actr3,2,-3.89,-3.65,-4.08,-3.69,active
Actr3,3,-3.97,-3.65,-3.62,-4.33,active
Actr3,4,3.5,1.19,5.06,1.95,active
Actr3,5,1.29,1.19,2.38,0.207,inactive
Actr3,6,-0.171,1.19,0.439,-0.782,inactive
Slc25a28,1,0.161,-1.26,0.149,0.172,inactive
Slc25a28,2,-1.26,-1.26,-2.04,-0.485,inactive
Slc25a28,3,-4.8,-1.26,-4.83,-4.76,active
Slc25a28,4,0.808,0.269,1.46,0.152,inactive
Slc25a28,5,0.535,0.269,0.708,0.361,inactive
Slc25a28,6,-0.0877,0.269,-0.352,0.176,inactive
Or5d39,1,-1.21,-4.15,0.513,-2.93,inactive
Or5d39,2,-4.61,-4.15,-5.42,-3.8,active
Or5d39,3,-4.86,-4.15,-5.24,-4.49,active
Or5d39,4,4.47,0.136,8.01,0.938,active
Or5d39,5,1.64,0.136,3.94,-0.666,inactive
Or5d39,6,-1.42,0.136,-1.48,-1.35,inactive
Krtap9-1,1,-2.22,-2.81,-2.83,-1.6,active
Krtap9-1,2,-2.91,-2.81,-3.35,-2.46,active
Krtap9-1,3,-3,-2.81,-3.23,-2.78,active
Krtap9-1,4,1.63,-0.472,3.27,-0.00912,inactive
Krtap9-1,5,0.104,-0.472,1.14,-0.935,inactive
Krtap9-1,6,-2.04,-0.472,-2.07,-2.02,active
Raf1,1,1.29,-2.63,1.08,1.51,inactive
Raf1,2,-2.63,-2.63,-2.84,-2.42,active
Raf1,3,-3.81,-2.63,-3.59,-4.04,active
Raf1,4,0.627,-1.35,1.31,-0.0587,inactive
Raf1,5,-1.35,-1.35,-1.25,-1.44,inactive
Raf1,6,-3.37,-1.35,-3.22,-3.52,active

Quoted from the entries so far (2 entries):
target gene,reagent,"TNF reporter z-score, mean","gene median z, three same-vendor siRNAs","TNF reporter z-score, repeat 1","TNF reporter z-score, repeat 2",Outcome
Atg3,4,3.15,0.743,5,1.29,active
Atg3,5,1.64,0.743,3.08,0.196,inactive
